In patent US20230100367A1, “METHODS OF TREATING CDGSH IRON SULFUR DOMAIN 2 INSUFFICIENCY-ASSOCIATED DISORDERS” (National Yang Ming Chiao Tung University, priority 2021, published 2023):
For at least one compound, name, drawing or mass did not settle the structure.

Legend:
Female C57BL/6 mice [1] = experiment: In vivo study of treating age-related arrhythmogenesis; conditions: 20-21 months old mice, 1 mg/kg i.p. twice a day for 18 days
[2] = system: ovariectomized female C57BL/6 mice; experiment: In vivo study of treating hypertensive cardiomyopathy; conditions: 0.015 wt % in diet for 3 months
Cisd2 hKO-het mice = experiment: In vivo study for treating nonalcoholic fatty liver disease (NAFLD); conditions: Cisd2 haploinsufficiency, 0.015 wt % in diet for 4 weeks, histopathology
Method: Compound 1 was evaluated for its anti-nonalcoholic fatty liver disease (“NAFLD”) effect and in vivo toxicity following an assay described below.
Cisd2 floxed allele (Cisd2 f/f) mice were prepared following a procedure described in Wang et al., Hum. Mol. Genet.23, 4770-85 (2014). To obtain Cisd2 heterozygous hepatocyte-specific knockout (Cisd2 hKO-het, Cisd2 f/+; Alb-Cre Tg), Cisd2 f/f mice were bred with Albumin-Cre transgenic (Alb-Cre Tg, JAX003574) mice. After one generation, Cisd2 hKO-het mice were obtained. Male mice were chosen to be used in this study. All mice have a pure or congenic C57BL/6 background and were bred/housed in a specific pathogen-free facility with a 12 h light/12 h dark cycle at a temperature of 20-22° C. Groups of mice at 8 weeks old were provided a diet (AIN93G, TestDiet) containing a vehicle (0.14 wt % of DMF and 0.15 wt % of Cremophor® EL) or compound 1 (0.015 wt %) for 4 weeks.
Histopathology was used to evaluate the efficacy of Compound 1 in ameliorating NAFLD. Liver tissues were collected and fixed with 10% neutral buffered formalin at 4° C. overnight. They were then processed in a tissue processor (STP120, Microm, Thermo Fisher Scientific Inc., Waltham, Mass.), followed by embedding in paraffin. H&E of tissue sections (3-4 μm) were carried out by a standard protocol. […]

Male C57BL/6 mice [3] = experiment: In vivo study of treating doxorubicin-induced cachexia and hepatotoxicity; conditions: 1 mg/kg i.p. twice a day for 2 days
WT mice = experiment: In vivo fructose-induced NASH model, wild-type mice; conditions: 0.015 wt % in diet for 5 months
Text: Compound 1 was used to alleviate nonalcoholic steatohepatitis (NASH) in wild-type and Cisd2 hKO male mice described above.
Cisd2 hKO were bred for two generations. […] They were fed 30% (w/v) fructose (Alfa Aesar, Tewksbury, Mass.) in drinking water to establish a fructose-induced NASH model. Groups of mice at 2 months old were provided with a diet (AIN93G, TestDiet, St. Louis, Mo.) containing a vehicle (0.14 wt % of DMF and 0.15 wt % of Cremophor® EL) or Compound 1 (0.015 wt %) for 5 months. The food and drinking water were provided ad libitum.
Histopathology was used to evaluate the efficacy of Compound 1 in alleviating NASH. Liver tissues were processed and stained as described in Example 3 above.
An oral glucose tolerance test (GTT) and an insulin tolerance test (ITT) were performed to study beneficial effects of Compound 1 in the fructose-induced glucose intolerance and hepatic insulin resistant mouse model. In the oral glucose tolerance test, mice were fasted for 14 hours (7 p.m. to 9 a.m.) and then were orally administrated with glucose water (1.5 mg/g body weight) using a feeding needle. […] Blood glucose levels were measured using OneTouch® Ultra glucose test strips and SureStep® Meter (LifeScan, Milpitas, Calif.). […] Blood samples were collected and monitored at predetermined time points.

[4] = system: hepatocyte-specific Cisd2 knockout (Cisd2 hKO) mice; experiment: In vivo fructose-induced NASH model, Cisd2 hKO mice; conditions: 0.015 wt % in diet for 5 months
Male C57BL/6 mice [5] = experiment: In vivo study of protecting against doxorubicin-induced cardiotoxicity; conditions: 1 mg/kg i.p. twice a day for 2 days
Female C57BL/6 mice [6] = experiment: In vivo study of treating age-related cardiac pathological change; conditions: 20-21 months old mice, 1 mg/kg i.p. twice a day

COC(=O)c1c(N)sc(C(=O)Nc2ccc(C)cc2C)c1C [Compound 1, Methyl 2-amino-5-[(2,4-dimethylphenyl)carbamoyl]-4-methylthiophene carboxylate]
age-related arrhythmogenesis (Female C57BL/6 mice [1]): protected against age-related arrhythmogenesis | systolic contractility during aging (Female C57BL/6 mice [1]): remained the same | widened QTc, prolonged Tpeak-Tend, and irregular PR interval (ECG) (Female C57BL/6 mice [1]): could be preserved | systolic blood pressure (SBP) ([2]; angiotensin II 1 μg/kg/min, tail cuff): significantly decreased SBP | global cardiac performance ([2]; angiotensin II model): effectively maintained cardiac performance | high P amplitude and bundle branch block (ECG) ([2]; angiotensin II model): could be preserved | hypertension-induced cardiac damage at the histopathological level (hypertrophic change of ventricular wall, perivascular fibrosis) ([2]; angiotensin II model): ameliorated hypertension-induced cardiac damage at the histopathological level | systolic contractility during hypertension ([2]; angiotensin II model): remained the same | NAFLD and liver pathology (steatosis, hepatocyte disorganization and ballooning) (Cisd2 hKO-het mice): ameliorated NAFLD and liver pathology | doxorubicin-induced hepatotoxicity and cachexia (Male C57BL/6 mice [3]): alleviated doxorubicin-induced hepatotoxicity and cachexia | global cardiac weight loss after single high-dose doxorubicin injection (Male C57BL/6 mice [3]): attenuated | doxorubicin-induced cardiac damage at the histopathological level (cytosolic vacuolation of cardiomyocytes, degeneration of muscle fibers) (Male C57BL/6 mice [3]; doxorubicin 25 mg/kg i.p.): alleviated doxorubicin-induced cardiac damage at the histopathological level | fructose-induced glucose intolerance and insulin resistance (GTT, ITT) (WT mice): alleviated fructose-induced glucose intolerance and insulin resistance | fructose-induced NASH (WT mice; histopathology): ameliorated fructose-induced NASH | beneficial effect in fructose-induced NASH model [4]: no overt beneficial effect | abnormality of ECG induced by doxorubicin (Male C57BL/6 mice [5]; ECG on day 4): rescued the abnormality of ECG induced by doxorubicin | doxorubicin-induced abnormal cardiac conductance in ST height and QRS interval (Male C57BL/6 mice [5]; ECG on day 4): attenuated | Cisd2 protein levels (Male C57BL/6 mice [5]; doxorubicin 25 mg/kg i.p.): significantly increased Cisd2 protein levels | global cardiac performance (Male C57BL/6 mice [5]; heart echo on day 5): effectively maintained the cardiac performance | age-related cardiac pathological changes (Female C57BL/6 mice [6]): alleviated age-related cardiac pathological changes | endomysial fibrosis increase during ageing (Female C57BL/6 mice [6]; Sirius red stain): could be prevented | cytosolic vacuole appeared at aging (Female C57BL/6 mice [6]; cardiac histology): disappeared
